Test results reported in article PMC9054013, “FCHO controls AP2’s initiating role in endocytosis through a PtdIns(4,5)P2-dependent switch” (Science Advances, 2022).
These are yes or no findings as the source states them, for the method shown. Some binding calls cover weakened binding; strength is not graded here. For some of these results: Where a sequence is shown, tags or fusion partners need not be part of it.

Protein sequences, listed by entry. Tags and fused reporters are not part of them. Lines headed by an entry give the natural chain unless they say otherwise; changes in a name come on top. Chains listed by the source or under a name are the forms on record and can include a tag or linker. Residues count along the entry.
GST-FCHO2 linker wt (residues 314 to 444) (Q0JRZ9, residues 314-444): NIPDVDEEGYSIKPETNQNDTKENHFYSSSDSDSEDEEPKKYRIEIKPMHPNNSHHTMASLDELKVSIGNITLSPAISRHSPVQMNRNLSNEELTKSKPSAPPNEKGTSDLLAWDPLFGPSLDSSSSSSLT
GST-FCHO2 phosphomimetic linker (residues 314 to 444) (Q0JRZ9, form named): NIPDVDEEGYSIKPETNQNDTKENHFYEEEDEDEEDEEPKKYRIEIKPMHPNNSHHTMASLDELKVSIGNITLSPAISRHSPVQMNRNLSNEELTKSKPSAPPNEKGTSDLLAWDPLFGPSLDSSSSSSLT
His6-MBP-Cμ2 wt (μ2 residues 160 to 435) (P84092, residues 160-435): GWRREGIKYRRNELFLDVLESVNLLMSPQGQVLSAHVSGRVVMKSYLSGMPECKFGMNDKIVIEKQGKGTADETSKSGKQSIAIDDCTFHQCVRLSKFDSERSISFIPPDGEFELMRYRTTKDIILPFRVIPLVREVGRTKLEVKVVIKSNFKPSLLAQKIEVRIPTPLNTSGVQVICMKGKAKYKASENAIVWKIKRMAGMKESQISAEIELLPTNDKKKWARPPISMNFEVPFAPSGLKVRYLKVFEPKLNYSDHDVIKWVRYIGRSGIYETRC
His6-MBP-Cμ2 BR4 mutant (K339A/K341A/K343A/K345A) (P84092, form named): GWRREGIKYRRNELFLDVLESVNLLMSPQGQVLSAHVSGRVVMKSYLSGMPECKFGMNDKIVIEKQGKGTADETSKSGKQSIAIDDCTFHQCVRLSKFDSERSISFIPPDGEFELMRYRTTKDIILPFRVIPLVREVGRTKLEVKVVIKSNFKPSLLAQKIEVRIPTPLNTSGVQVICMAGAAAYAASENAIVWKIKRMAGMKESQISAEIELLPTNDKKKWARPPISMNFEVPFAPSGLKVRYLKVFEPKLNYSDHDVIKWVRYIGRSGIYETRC

Tests used:
Assay in all cases: pull-down; GST or GST-fusion protein immobilised on GSH Sepharose; recombinant AP2 core or His6-MBP-Cμ2 added; supernatant and pellet by SDS-PAGE, Coomassie or anti-μ2 blot; near-physiological conditions; both purified
[1] = target: GST-FCHO2 phosphomimetic linker (residues 314 to 444) (human) (UniProt Q0JRZ9)
[2] = target: GST-FCHO2 linker wt (residues 314 to 444) (human) (UniProt Q0JRZ9)
[3] = target: T1, GST-SERINC3-L10 (residues 354 to 404) (UniProt Q13530)
T1 sequence: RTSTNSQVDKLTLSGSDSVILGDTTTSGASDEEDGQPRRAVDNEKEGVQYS

Row | Substance | binding [1] | binding [2] | binding [3]
1 | His6-MBP-Cμ2 BR4 mutant (K339A/K341A/K343A/K345A) (from UniProt P84092 160-435) (domain or fragment) | binds | – | –
2 | His6-MBP-Cμ2 wt (μ2 residues 160 to 435) (from UniProt P84092 160-435) (domain or fragment) | binds | binds | binds
